Measurements taken from PubChem BioAssay AID540275 (National Center for Advancing Translational Sciences (NCATS), 2011).
About 620 (0.19%) of roughly 320,000 compounds were called active. Inconclusive means that the source gave no clear call. Such entries were picked first, then a sample of the others. No stated cut-off is given here; in the data, active means activation above about 80%; inconclusive means between about 30% and that limit; inactive means weaker than that.

Protein sequences, listed by entry. Tags and fused reporters are not part of them.
UniProt Q8NER1, whole entry, looked up: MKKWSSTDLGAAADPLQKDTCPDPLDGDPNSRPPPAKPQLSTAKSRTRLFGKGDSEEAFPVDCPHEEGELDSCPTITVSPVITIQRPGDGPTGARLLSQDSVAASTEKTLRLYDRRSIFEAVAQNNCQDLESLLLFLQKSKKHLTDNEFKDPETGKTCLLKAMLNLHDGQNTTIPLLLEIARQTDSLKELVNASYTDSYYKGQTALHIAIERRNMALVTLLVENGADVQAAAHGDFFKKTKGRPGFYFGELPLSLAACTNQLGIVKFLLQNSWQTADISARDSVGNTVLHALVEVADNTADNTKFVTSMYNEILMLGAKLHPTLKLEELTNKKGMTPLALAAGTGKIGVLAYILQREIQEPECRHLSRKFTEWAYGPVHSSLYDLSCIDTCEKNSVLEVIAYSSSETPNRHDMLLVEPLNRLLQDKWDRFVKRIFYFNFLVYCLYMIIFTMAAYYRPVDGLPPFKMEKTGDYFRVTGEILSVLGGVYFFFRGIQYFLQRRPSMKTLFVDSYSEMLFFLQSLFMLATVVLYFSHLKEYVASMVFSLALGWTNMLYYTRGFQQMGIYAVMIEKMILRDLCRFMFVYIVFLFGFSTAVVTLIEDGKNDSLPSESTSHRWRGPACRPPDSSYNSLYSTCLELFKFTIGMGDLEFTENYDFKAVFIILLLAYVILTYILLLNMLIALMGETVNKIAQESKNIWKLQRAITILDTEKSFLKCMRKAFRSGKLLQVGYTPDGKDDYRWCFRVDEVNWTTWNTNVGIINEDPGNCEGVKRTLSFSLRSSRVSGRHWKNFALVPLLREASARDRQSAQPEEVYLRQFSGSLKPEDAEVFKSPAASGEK

target: Transient receptor potential cation channel subfamily V member 1 (Homo sapiens) (UniProt Q8NER1); test: HTS Assay for Compounds that Act as Agonists of the Vanilloid Receptor 1; settings: TRPV1-expressing cells, Fluo-8 calcium influx, agonist mode; at 8.33 µM, hits give high values; further: 0% is about no effect
Procedure, shortened: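 Fluo-8 calcium influx in TRPV1-expressing cells, kinetic read (ex 480/em 520 nm). Compound added and read 3 min for agonist activity, followed by capsaicin at EC20 final and 2 min further read for enhancement.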

Question: Which activation does the source give for C=CCNC(=S)NNC(=O)c1ccc(OCCC)cc1 here?
Answer: inactive: -1.07%

Question: For c1ccc(CSc2ccc(-c3ccccn3)nn2)cc1, which activation is on record?
Answer: inconclusive: 44.9%

Question: With Cc1ccc(NC(=O)N2CCCN(C(=O)OC(C)(C)C)CC2)cc1Cl as the molecule, how does the activation read?
Answer: inconclusive: 53.3%

Question: With COc1ccc(/C=N/N2CCN(Cc3ccccc3)CC2)cc1 as the molecule, how does the activation read?
Answer: inactive: 2.56%

Question: How did the activation turn out when COc1cccc(OCc2cc(C(=O)N(C)C3CC(C)(C)NC(C)(C)C3)no2)c1 was run?
Answer: inactive: -3.79%

Question: With O=C(Nc1nccs1)c1cc(N2CCOCC2)nc2ccccc12 as the molecule, how does the activation read?
Answer: inconclusive: 34.7%

Question: O=C(NC12CC3CC(CC(C3)C1)C2)c1ccc(-c2ccccc2Cl)o1 was tested. Which activation did it give?
Answer: inconclusive: 68.1%

Question: How did the activation turn out when COC(=O)[C@H](C)NC(=O)Nc1ccccc1C(F)(F)F was run?
Answer: inactive: 0.014%

Question: Which activation does the source give for COC(=O)/C=C1\S/C(=N/N=C/c2ccco2)NC1=O here?
Answer: inactive: 2.29%

Question: For CCC(C)(C)NC(=O)Cn1c(=O)oc2cc(S(=O)(=O)N3CC(C)CC(C)C3)ccc21 (configuration not stated), which activation is on record?
Answer: inconclusive: 39.5%

Question: Which activation does the source give for O=[N+]([O-])c1cccc(-c2nc(-c3cccs3)c(-c3cccs3)[nH]2)c1 here?
Answer: inactive: -0.838%

Question: With O=S(=O)(c1ccc(F)c(Cl)c1)N1CCN(C/C=C/c2ccccc2)CC1 as the molecule, how does the activation read?
Answer: inconclusive: 35.2%

Question: For COC(=O)CN1C(=S)N(Cc2ccccc2)C(=O)C1CC(=O)Nc1ccc(OC)cc1 (configuration not stated), which activation is on record?
Answer: inactive: 18.9%

Question: Which activation does the source give for CCOc1ccc2nc(N3CCCCCC3)sc2c1 here?
Answer: inactive: 9.69%

Question: COc1ccc(CNC(=O)Cn2ccc3cc(S(=O)(=O)N4CCCC4)ccc32)cc1OC was tested. Which activation did it give?
Answer: inconclusive: 36.2%

Question: Which activation does the source give for Cc1ccc(NC(=O)CCS(=O)(=O)c2cccc3nonc23)c(Br)c1 here?
Answer: inconclusive: 33.8%

Question: How did the activation turn out when Cc1ccc(C2(C)NC(=O)N(CC(=O)N(Cc3ccccc3)C(C)(C)C)C2=O)cc1 (configuration not stated) was run?
Answer: inconclusive: 34.8%

Question: Cc1cccc(OCCCn2c(CO)nc3ccccc32)c1 was tested. Which activation did it give?
Answer: inconclusive: 77.1%

Question: For CCOC(=O)C1(CC2CCCCO2)CCN(Cc2nccn2-c2cccc(C)c2)CC1 (configuration not stated), which activation is on record?
Answer: inconclusive: 38.4%

Question: How did the activation turn out when OC(COc1ccc2c(c1)CCC2)CN1CCN(c2ccccc2F)CC1 (configuration not stated) was run?
Answer: inactive: -1.55%

Question: For CCCS(=O)(=O)N1CCCC(C(=O)NCC(OC)OC)C1 (configuration not stated), which activation is on record?
Answer: inconclusive: 37.3%

Question: Cc1ccc(OCCCC(=O)Nc2ccc(S(N)(=O)=O)cc2)cc1 was tested. Which activation did it give?
Answer: inconclusive: 51.8%

Question: CC(=O)c1ccc(N2CCN(C(=O)CCCn3c(=O)[nH]c4ccccc4c3=O)CC2)cc1 was tested. Which activation did it give?
Answer: inactive: -0.152%

Question: For Cc1cc(C(F)F)n2nc(C(=O)Nc3cccc(C(F)(F)F)c3)nc2n1, which activation is on record?
Answer: inactive: 2.41%

Question: With COc1cc(NC(=O)c2ccnn2C)c(OC)cc1Cl as the molecule, how does the activation read?
Answer: inactive: -2.03%

Question: With Cc1cccc(-c2cc(C(=O)Nc3ccncc3)c3ccccc3n2)c1 as the molecule, how does the activation read?
Answer: inconclusive: 49.6%

Question: With CCN(CC)c1ccc2nc3ccc(N)cc3[n+](-c3ccccc3)c2c1 as the molecule, how does the activation read?
Answer: inactive: -5.92%

Question: Which activation does the source give for FC(F)(F)c1cccc(N2CCN(C(=S)NC3CCCC3)CC2)c1 here?
Answer: inconclusive: 42.4%

Question: With O=C(Nc1ccccc1N1CCN(C(=O)c2ccccc2)CC1)c1ccc(Cl)cc1 as the molecule, how does the activation read?
Answer: inconclusive: 37.7%

Question: For CCOc1cc(/C=N/NC(=O)c2cccnc2)ccc1O, which activation is on record?
Answer: inactive: 3.9%

Question: With CC(C)(C)C(=O)COC(=O)c1cc(S(=O)(=O)N2CCCCC2)ccc1N1CCOCC1 as the molecule, how does the activation read?
Answer: inconclusive: 33.2%

Question: O=C(Nc1nc(-c2ccccc2)cs1)c1ccc(=O)[nH]c1 was tested. Which activation did it give?
Answer: inconclusive: 51.3%

Question: CC(=O)Nc1ccc(S(=O)(=O)N2CCN(Cc3ccccc3[N+](=O)[O-])CC2)cc1 was tested. Which activation did it give?
Answer: inactive: 1.39%

Question: Which activation does the source give for O=C(Nc1ccc(Cl)cc1)c1ccc2c(c1)OCO2 here?
Answer: inconclusive: 73.1%

Question: How did the activation turn out when COc1ccc(C(=O)Nc2ccc(NC(=O)c3cccs3)cc2)cc1Cl was run?
Answer: inactive: 2.82%

Question: Which activation does the source give for COc1ccc(N2C(=O)CC(Sc3nc(C)cc(C)c3C#N)C2=O)cc1 (configuration not stated) here?
Answer: inactive: -1.25%

Question: For Cc1nc(Cl)sc1C(=O)Nc1cccc(Cl)c1C, which activation is on record?
Answer: inactive: 17.7%

Question: O=C(O)COc1ccc(-c2nnn(CC(=O)O)n2)cc1 was tested. Which activation did it give?
Answer: inactive: 0.0766%

Question: O=C(Nc1nc2cc3c(cc2s1)OCO3)C1=COCCO1 was tested. Which activation did it give?
Answer: inconclusive: 44.2%

Question: With COc1ccccc1C(=O)NC1CCN(C(=O)Nc2ccc(C)cc2)CC1 as the molecule, how does the activation read?
Answer: inconclusive: 36.6%

Question: For CCn1c(SCC(=O)N2CCc3ccccc3C2)nc2sc(C)c(C)c2c1=O, which activation is on record?
Answer: inconclusive: 31.5%

Question: Which activation does the source give for CCOC(=O)c1sc(NC(=O)c2ccc(Br)o2)cc1C here?
Answer: inconclusive: 57%

Question: With O=S(=O)(Nc1cccnc1)c1ccc(C2CCCCC2)cc1 as the molecule, how does the activation read?
Answer: inconclusive: 35.2%

Question: Cc1ccc(C(=O)Nc2nnc(C3CCCCC3)s2)o1 was tested. Which activation did it give?
Answer: inconclusive: 75.2%

Question: COc1ccc(C2CCCN2C(=O)Nc2ccc(C)c(C)c2)cc1OC (configuration not stated) was tested. Which activation did it give?
Answer: inconclusive: 68.9%

Question: Which activation does the source give for CC(=O)Nc1ccc(S(=O)(=O)Oc2ccc(/C=N/NC(=O)c3ccc(Cl)cc3)cc2)cc1 here?
Answer: inactive: -3.07%

Question: For COCc1ccc(C(=O)NC2CCCc3c2cnn3-c2cc(C)cc(C)c2)s1 (configuration not stated), which activation is on record?
Answer: inconclusive: 41.8%

Question: Which activation does the source give for CC(C)(C)C1CCC(C(=O)OCC(=O)Nc2ccc3[nH]c(=O)[nH]c3c2)CC1 (configuration not stated) here?
Answer: inconclusive: 60.5%

Question: For CC(=O)c1c(C)[nH]c(C(=O)Nc2cccc(C#N)c2)c1C, which activation is on record?
Answer: inactive: 0.758%

Question: For COc1ccccc1C(=O)NCC(c1ccco1)N1CCc2ccccc21 (configuration not stated), which activation is on record?
Answer: inconclusive: 48.9%

Question: For O=C(Nc1ccccc1F)c1oc2ccccc2c1NC(=O)C1CC1, which activation is on record?
Answer: inconclusive: 78.9%

Question: O=C(Nc1nccs1)c1cc2c(s1)CCCCC2 was tested. Which activation did it give?
Answer: inactive: -2.91%

Question: With O=C(CN1CCN(S(=O)(=O)c2ccc(F)c(F)c2)CC1)Nc1ccccc1C(=O)NC1CC1 as the molecule, how does the activation read?
Answer: inconclusive: 39%

Question: NC(=O)c1ccc(NC(=O)C2COc3ccccc3O2)cc1 (configuration not stated) was tested. Which activation did it give?
Answer: inconclusive: 40%

Question: N#C[C@@H]1N(Cc2ccccc2)C(=O)[C@H]2CC3C=CC21O3 (some centres not stated) was tested. Which activation did it give?
Answer: inactive: 3.59%

Question: COc1cccc(/C=C2\N=C3CCCCCN3C2=O)c1 was tested. Which activation did it give?
Answer: inconclusive: 36.7%

Question: CC(C)(C)c1ccc(Oc2ccc(NC(=O)c3cccs3)cn2)cc1 was tested. Which activation did it give?
Answer: inconclusive: 59.8%

Question: With NC(=O)CC1C(=O)N(c2ccc(Cl)cc2)C(=S)N1NC(=O)c1cccc(F)c1 (configuration not stated) as the molecule, how does the activation read?
Answer: inconclusive: 30.5%

Question: With O=C(NCCc1ccc(F)cc1)NC12CC3CC(CC(C3)C1)C2 as the molecule, how does the activation read?
Answer: inconclusive: 33.9%

Question: With Cc1cc(-c2ccccc2)nc(N/N=C/c2ccccc2F)n1 as the molecule, how does the activation read?
Answer: inconclusive: 34.3%

Question: CCCn1nc(NC(=O)CC)c2cc3cccc(C)c3nc21 was tested. Which activation did it give?
Answer: inconclusive: 35.6%

Question: For Cc1ccc2c(c1)N(Cc1ccncc1)C(=O)C(C)O2 (configuration not stated), which activation is on record?
Answer: inactive: 17.3%

Question: How did the activation turn out when O=C(Nc1ccc(F)cc1F)c1ccco1 was run?
Answer: inactive: -2.55%

Question: With C(=N\NC1=Nc2cccc3cccc1c23)/c1cccnc1 as the molecule, how does the activation read?
Answer: inactive: 8.35%

Question: For Cc1ccc2[nH]c3c(N4CCc5ccccc5C4)ncnc3c2c1, which activation is on record?
Answer: inconclusive: 59.1%

Question: For CCCCCCCCC(=O)N/N=C(\C)c1cccnc1, which activation is on record?
Answer: inconclusive: 40.5%

Question: How did the activation turn out when CCOC(=O)c1nc(N2CCN(C(=O)OCC)CC2)c2c3c(sc2n1)CCCC3 was run?
Answer: inconclusive: 65.1%

Question: For Cc1nc(NCCC(C)C)c2nnn(Cc3ccccc3)c2n1, which activation is on record?
Answer: inconclusive: 31.1%

Question: For Cc1cccc(N2CCN(C(=O)NC(C)c3ccc(F)c(F)c3)CC2)c1C (configuration not stated), which activation is on record?
Answer: inconclusive: 49%

Question: Which activation does the source give for C=CCN1C=C/C(=C\C=C(C#N)C#N)c2ccccc21 here?
Answer: inactive: 15.6%

Question: How did the activation turn out when O=c1c(-c2ccc(Cl)cc2)[n+]([O-])c2ccccc2n1OCc1nc2ccccc2[nH]1 was run?
Answer: inconclusive: 38.4%

Question: Which activation does the source give for CC(C)(C)c1cc(C(=O)CCN2CCOCC2)cc(C(C)(C)C)c1O here?
Answer: inconclusive: 42.6%

Question: For Cc1ccc(N/C=C(/C#N)c2ccsc2)cc1C, which activation is on record?
Answer: inconclusive: 34.7%

Question: O=C(c1cn2ccccc2n1)N1CCCC(Nc2ccc(F)c(F)c2)C1 (configuration not stated) was tested. Which activation did it give?
Answer: inconclusive: 46%

Question: For Cc1ccccc1CN(C)CC(=O)Nc1ccccc1Oc1ccccc1, which activation is on record?
Answer: inconclusive: 40.2%

Question: Which activation does the source give for COc1ccc(C(=O)Nc2ccc(S(=O)(=O)N3CCCCC3)cc2)cc1 here?
Answer: inconclusive: 55.7%

Question: NC(=Nc1ccccc1)Nc1ccccc1 was tested. Which activation did it give?
Answer: inactive: 28.8%

Question: Which activation does the source give for COc1ccc(CNC(=O)Cn2nc(C(F)(F)F)c(Br)c2C)cc1 here?
Answer: inactive: -3.46%

Question: With O=C(CN1CCN(c2cccc(C(F)(F)F)c2)CC1)NCc1ccccc1 as the molecule, how does the activation read?
Answer: inconclusive: 34.8%

Question: With O=C(NCCCn1ccnc1)c1ccc(-c2ccccc2)cc1 as the molecule, how does the activation read?
Answer: inconclusive: 44.9%

Question: With Cc1cccc(NC(=O)c2ccc([N+](=O)[O-])s2)c1C as the molecule, how does the activation read?
Answer: inconclusive: 34.6%

Question: With O=C(NCCCc1ccccc1)c1ccncc1 as the molecule, how does the activation read?
Answer: inconclusive: 45.5%

Question: Which activation does the source give for CCCc1cc(C(=O)O)c2ccccc2n1 here?
Answer: inactive: -0.733%

Question: How did the activation turn out when C=CCn1c(=O)c(CCC(=O)Nc2ccc(N3CCOCC3)cc2)nc2cc(C(F)(F)F)ccc21 was run?
Answer: inactive: 24.9%

Question: Which activation does the source give for COc1cc(C(=O)OCC(=O)NCc2ccc(F)cc2)ccc1OCC(C)C here?
Answer: inconclusive: 41.2%

Question: Which activation does the source give for Cc1cc(C)cc(NC(=O)COC(=O)CCCC2=NS(=O)(=O)c3ccccc3N2)c1 here?
Answer: inactive: -4.23%

Question: How did the activation turn out when C=C(C)CN(CC)C(=O)COc1ccc(S(=O)(=O)Nc2ccc(OC)cc2)cc1 was run?
Answer: inactive: 27.5%

Question: Which activation does the source give for CCOc1ccc(NS(=O)(=O)c2cc(NC(=O)c3ccc(C)cc3)ccc2Cl)cc1 here?
Answer: inactive: -5.01%

Question: With CCC(C(=O)Nc1cc(C(=O)Nc2cc(C)ccn2)ccc1Cl)c1ccccc1 (configuration not stated) as the molecule, how does the activation read?
Answer: inconclusive: 37.6%

Question: With COc1ccc(C(=O)Nc2ccccc2C(=O)Nc2cccc(C)n2)cc1 as the molecule, how does the activation read?
Answer: inconclusive: 41.7%

Question: For COc1ccccc1CNC(=O)COC(=O)Cc1ccc(F)cc1, which activation is on record?
Answer: inactive: 25.5%

Question: How did the activation turn out when CC(=O)Nc1ccc(C2CC(c3ccc(Cl)cc3)=NN2c2ccccc2)cc1 (configuration not stated) was run?
Answer: inactive: -0.268%
